# Assay results taken from the supplement of paper PMC8728848.
# This is one part of the list.
# B1: SLLPI (Mus musculus), Q9D9X8 (protein)
# chain: MGICMSMYTQVLVPVDADGDHHILWSRFYERWGSCFNPCAGLVNCLPPHSSALYLCHRMEARSRAPRRQLCPPGITWLALAYLLSCLLASSKAKVFSRCELAKEMHDFGLDGYRGYNLADWVCLAYYTSGFNTNAVDHEADGSTNNGIFQISSRRWCRTLASNGPNLCRIYCTDLLNNDLKDSIVCAMKIVQEPLGLGYWEAWRHHCQGRDLSDWVDGCDF
# Key:
# Assay in all cases: glycan array binding signal (z-score within array); higher = stronger binding
# Conditions in all cases: glycan notation: IUPAC condensed, linker removed
# [1] = molecular target: Man(a1-3)[Man(a1-6)]Man(a1-6)[Man(a1-3)]Man
# In short: (§1)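 Glycan array data were curated from 3228 arrays in the Consortium for Functional Glycomics database and kept only where the protein sequence was available. Glycan names were converted to IUPAC-condensed notation, and columns mapping to the same glycan were averaged. The binding signal is a within-array Z-score, averaged across arrays of the same protein sequence at different concentrations or buffers and across linkers. Negative Z-scores can be read as non-binding.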
# [2] = molecular target: Man(a1-3)[Man(a1-6)]Man(a1-6)[Man(a1-3)]Man(b1-4)GlcNAc(b1-4)GlcNAc
# In short: as §1
# [3] = molecular target: Man(a1-3)[Man(a1-6)]Man(b1-4)GlcNAc(b1-4)GlcNAc
# In short: as §1
# [4] = molecular target: Man(a1-6)Man
# In short: as §1
# [5] = molecular target: Man(b1-4)GlcNAc
# In short: as §1
# [6] = molecular target: Neu5Ac(a2-3)Gal
# In short: as §1
# [7] = molecular target: Neu5Ac(a2-3)Gal(b1-3)GalNAc
# In short: as §1
# [8] = molecular target: Neu5Ac(a2-3)Gal(b1-3)GalNAc(b1-3)Gal(a1-4)Gal(b1-4)Glc
# In short: as §1
# [9] = molecular target: Neu5Ac(a2-3)Gal(b1-3)GalNAc(b1-3)Gal(b1-4)GlcNAc
# In short: as §1
# [10] = molecular target: Neu5Ac(a2-3)Gal(b1-3)GalNAc(b1-4)[Neu5Ac(a2-3)]Gal(b1-4)Glc
# In short: as §1
# [11] = molecular target: Neu5Ac(a2-3)Gal(b1-3)GalNAc6S
# In short: as §1
# [12] = molecular target: Neu5Ac(a2-3)Gal(b1-3)GlcNAc
# In short: as §1
# [13] = molecular target: Neu5Ac(a2-3)Gal(b1-3)GlcNAc(b1-3)Gal(b1-3)GlcNAc
# In short: as §1
# [14] = molecular target: Neu5Ac(a2-3)Gal(b1-3)GlcNAc6S
# In short: as §1
# [15] = molecular target: Neu5Ac(a2-3)Gal(b1-3)[Fuc(a1-4)]GlcNAc
# In short: as §1
# [16] = molecular target: Neu5Ac(a2-3)Gal(b1-3)[Fuc(a1-4)]GlcNAc(b1-3)Gal(b1-4)[Fuc(a1-3)]GlcNAc
# In short: as §1
# [17] = molecular target: Neu5Ac(a2-3)Gal(b1-3)[Neu5Ac(a2-3)Gal(b1-4)]GlcNAc
# In short: as §1
# [18] = molecular target: Neu5Ac(a2-3)Gal(b1-3)[Neu5Ac(a2-6)]GalNAc
# In short: as §1
# [19] = molecular target: Neu5Ac(a2-3)Gal(b1-4)Glc
# In short: as §1
# [20] = molecular target: Neu5Ac(a2-3)Gal(b1-4)GlcNAc
# In short: as §1
# [21] = molecular target: Neu5Ac(a2-3)Gal(b1-4)GlcNAc(b1-2)Man(a1-3)[GlcNAc(b1-2)Man(b1-4)GlcNAc(b1-2)Man(a1-6)]Man(b1-4)GlcNAc(b1-4)GlcNAc
# In short: as §1
# [22] = molecular target: Neu5Ac(a2-3)Gal(b1-4)GlcNAc(b1-2)Man(a1-3)[Neu5Ac(a2-6)Gal(b1-4)GlcNAc(b1-2)Man(a1-6)]Man(b1-4)GlcNAc(b1-4)GlcNAc
# In short: as §1
# [23] = molecular target: Neu5Ac(a2-3)Gal(b1-4)GlcNAc(b1-3)Gal(b1-3)GlcNAc
# In short: as §1
# [24] = molecular target: Neu5Ac(a2-3)Gal(b1-4)GlcNAc(b1-3)Gal(b1-4)GlcNAc
# In short: as §1
# [25] = molecular target: Neu5Ac(a2-3)Gal(b1-4)GlcNAc(b1-3)Gal(b1-4)GlcNAc(b1-3)Gal(b1-4)GlcNAc
# In short: as §1
# [26] = molecular target: Neu5Ac(a2-3)Gal(b1-4)GlcNAc(b1-3)Gal(b1-4)[Fuc(a1-3)]GlcNAc
# In short: as §1
# [27] = molecular target: Neu5Ac(a2-3)Gal(b1-4)GlcNAc(b1-6)[Gal(b1-3)]GalNAc
# In short: as §1
# [28] = molecular target: Neu5Ac(a2-3)Gal(b1-4)GlcNAc(b1-6)[Neu5Ac(a2-3)Gal(b1-3)]GalNAc
# In short: as §1
# [29] = molecular target: Neu5Ac(a2-3)Gal(b1-4)GlcNAc6S
# In short: as §1
# [30] = molecular target: Neu5Ac(a2-3)Gal(b1-4)[Fuc(a1-3)]GlcNAc
# In short: as §1
# [31] = molecular target: Neu5Ac(a2-3)Gal(b1-4)[Fuc(a1-3)]GlcNAc(b1-3)Gal
# In short: as §1
# [32] = molecular target: Neu5Ac(a2-3)Gal(b1-4)[Fuc(a1-3)]GlcNAc(b1-3)Gal(b1-4)GlcNAc
# In short: as §1
# [33] = molecular target: Neu5Ac(a2-3)Gal(b1-4)[Fuc(a1-3)]GlcNAc(b1-3)Gal(b1-4)[Fuc(a1-3)]GlcNAc(b1-3)Gal(b1-4)[Fuc(a1-3)]GlcNAc
# In short: as §1
# [34] = molecular target: Neu5Ac(a2-3)Gal(b1-4)[Fuc(a1-3)]GlcNAc(b1-6)[Gal(b1-3)]GalNAc
# In short: as §1
# [35] = molecular target: Neu5Ac(a2-3)Gal(b1-4)[Fuc(a1-3)]GlcNAc6S
# In short: as §1
# [36] = molecular target: Neu5Ac(a2-3)Gal6S(b1-4)GlcNAc
# In short: as §1
# [37] = molecular target: Neu5Ac(a2-3)Gal6S(b1-4)[Fuc(a1-3)]GlcNAc
# In short: as §1
# [38] = molecular target: Neu5Ac(a2-3)GalNAc
# In short: as §1
# [39] = molecular target: Neu5Ac(a2-3)GalNAc(b1-4)GlcNAc
# In short: as §1
# [40] = molecular target: Neu5Ac(a2-3)[GalNAc(b1-4)]Gal(b1-4)Glc
# In short: as §1
# [41] = molecular target: Neu5Ac(a2-3)[GalNAc(b1-4)]Gal(b1-4)GlcNAc
# In short: as §1
# [42] = molecular target: Neu5Ac(a2-3)[Neu5Ac(a2-6)]GalNAc
# In short: as §1
# [43] = molecular target: Neu5Ac(a2-6)Gal
# In short: as §1
# [44] = molecular target: Neu5Ac(a2-6)Gal(b1-4)Glc
# In short: as §1
# [45] = molecular target: Neu5Ac(a2-6)Gal(b1-4)GlcNAc
# In short: as §1
binder,measurement,setting,value
B1,glycan array binding signal (z-score),[1],-0.684
same,glycan array binding signal (z-score),[2],-0.49
same,glycan array binding signal (z-score),[3],-0.823
same,glycan array binding signal (z-score),[4],-0.797
same,glycan array binding signal (z-score),[5],-0.875
same,glycan array binding signal (z-score),[6],-0.263
same,glycan array binding signal (z-score),[7],-0.56
same,glycan array binding signal (z-score),[8],-0.269
same,glycan array binding signal (z-score),[9],-0.416
same,glycan array binding signal (z-score),[10],-1.2
same,glycan array binding signal (z-score),[11],1.23
same,glycan array binding signal (z-score),[12],-1.04
same,glycan array binding signal (z-score),[13],-0.839
same,glycan array binding signal (z-score),[14],-0.54
same,glycan array binding signal (z-score),[15],-0.097
same,glycan array binding signal (z-score),[16],-0.883
same,glycan array binding signal (z-score),[17],-0.175
same,glycan array binding signal (z-score),[18],-0.442
same,glycan array binding signal (z-score),[19],-0.952
same,glycan array binding signal (z-score),[20],0.472
same,glycan array binding signal (z-score),[21],-0.526
same,glycan array binding signal (z-score),[22],-1.03
same,glycan array binding signal (z-score),[23],-0.542
same,glycan array binding signal (z-score),[24],-1.59
same,glycan array binding signal (z-score),[25],0.306
same,glycan array binding signal (z-score),[26],-0.077
same,glycan array binding signal (z-score),[27],-0.749
same,glycan array binding signal (z-score),[28],-0.957
same,glycan array binding signal (z-score),[29],1.36
same,glycan array binding signal (z-score),[30],0.014
same,glycan array binding signal (z-score),[31],0.196
same,glycan array binding signal (z-score),[32],1
same,glycan array binding signal (z-score),[33],-0.16
same,glycan array binding signal (z-score),[34],-0.335
same,glycan array binding signal (z-score),[35],-0.086
same,glycan array binding signal (z-score),[36],0.897
same,glycan array binding signal (z-score),[37],1.03
same,glycan array binding signal (z-score),[38],0.552
same,glycan array binding signal (z-score),[39],0.108
same,glycan array binding signal (z-score),[40],-0.505
same,glycan array binding signal (z-score),[41],-0.093
same,glycan array binding signal (z-score),[42],-0.71
same,glycan array binding signal (z-score),[43],1.33
same,glycan array binding signal (z-score),[44],-0.414
same,glycan array binding signal (z-score),[45],0.392

# Reprinted from the results shown for reference:
binder,measurement,setting,value
B1,glycan array binding signal (z-score),[27],-0.749
same,glycan array binding signal (z-score),[28],-0.957
